Measurements as given in US20220348670A1 (BIODURO BEIJING, published 2022).
Results are given in words; binding and its absence hold for the method and conditions named. Some binding calls cover weakened binding; strength is not graded here. For some assays here: Where a sequence is shown, tags or fusion partners need not be part of it.

B1: OX40 BC3-1 (phage-displayed VHH clone) (VHH)
VHH: EVQLVESGGGLVQPGGSLRLSCAASGSIFSVYVMGWFRQAPGKGRELVAAITPFDDNTYYPDSVEGRFTISRDNAKRMVYLQMNSLRAEDTAVYYCAADWEWPEYNYWGQGTQVTVSS
notes: Tested as phage in monoclonal culture supernatant (M13 display), not as purified protein; the phage coat fusion is not described
B2: OX40 BC3-4 (phage-displayed VHH clone) (VHH)
VHH: EVQLVESGGGLVQPGGSLRLSCAASGFIFSAYFMGWFRQAPGKGRELVAAINSNDDITYYPDSVEGRFTISRDNAKRMVYLQMNSLRAEDTAVYYCAAWLGAENYGYWGQGTQVTVSS
notes: as for B1
B3: OX40 BC3-6 (phage-displayed VHH clone) (VHH)
VHH: EVQLVESGGGLVQPGGSLRLSCAASGSILDSNLMGWFRQAPGKGRELVASINSYDDNTYYPDSVEGRFTISRDNAKRMVYLQMNSLRAEDTAVYYCAAQVFVGWPYTDQMHDYWGQGTQVTVSS
notes: as for B1
B4: OX40 BC3-7 (phage-displayed VHH clone) (VHH)
VHH: EVQLVESGGGLVQPGGSLRLSCAASGSIYDFDVMGWFRQAPGKGRELVAAINSFGDITYYPDSVEGRFTISRDNAKRMVYLQMNSLRAEDTAVYYCAADWHVLIQQVLGYWGQGTQVTVSS
notes: as for B1
B5: anti-human OX40 antibody BC3-1 (OX40 VHH-Fc) (Fc fusion)
chain: EVQLVESGGGLVQPGGSLRLSCAASGSIFSVYVMGWFRQAPGKGRELVAAITPFDDNTYYPDSVEGRFTISRDNAKRMVYLQMNSLRAEDTAVYYCAADWEWPEYNYWGQGTQVTVSS
notes: VHH fused through a linker to human IgG Fc, expressed in ExpiCHO, purified on Protein A; also called OX40 BC3-1; OX40 VHH-Fc antibody; not shown: linker encoded by the CMV-12GS-FC vector; human IgG FC fragment (hFC)
B6: anti-human OX40 antibody BC3-4 (OX40 VHH-Fc) (Fc fusion)
chain: EVQLVESGGGLVQPGGSLRLSCAASGFIFSAYFMGWFRQAPGKGRELVAAINSNDDITYYPDSVEGRFTISRDNAKRMVYLQMNSLRAEDTAVYYCAAWLGAENYGYWGQGTQVTVSS
notes: VHH fused through a linker to human IgG Fc, expressed in ExpiCHO, purified on Protein A; also called OX40 BC3-4; OX40 VHH-Fc antibody; not shown: linker encoded by the CMV-12GS-FC vector; human IgG FC fragment (hFC)
B7: anti-human OX40 antibody BC3-6 (OX40 VHH-Fc) (Fc fusion)
chain: EVQLVESGGGLVQPGGSLRLSCAASGSILDSNLMGWFRQAPGKGRELVASINSYDDNTYYPDSVEGRFTISRDNAKRMVYLQMNSLRAEDTAVYYCAAQVFVGWPYTDQMHDYWGQGTQVTVSS
notes: VHH fused through a linker to human IgG Fc, expressed in ExpiCHO, purified on Protein A; also called OX40 BC3-6; OX40 VHH-Fc antibody; not shown: linker encoded by the CMV-12GS-FC vector; human IgG FC fragment (hFC)
B8: anti-human OX40 antibody BC3-7 (OX40 VHH-Fc) (Fc fusion)
chain: EVQLVESGGGLVQPGGSLRLSCAASGSIYDFDVMGWFRQAPGKGRELVAAINSFGDITYYPDSVEGRFTISRDNAKRMVYLQMNSLRAEDTAVYYCAADWHVLIQQVLGYWGQGTQVTVSS
notes: VHH fused through a linker to human IgG Fc, expressed in ExpiCHO, purified on Protein A; also called OX40 BC3-7; OX40 VHH-Fc antibody; not shown: linker encoded by the CMV-12GS-FC vector; human IgG FC fragment (hFC)

What follows are binders tested against T1, OX40-mFc protein (UniProt P43489 29-214) (assay: phage ELISA on coated OX40-mFc).
T1 sequence (looked up): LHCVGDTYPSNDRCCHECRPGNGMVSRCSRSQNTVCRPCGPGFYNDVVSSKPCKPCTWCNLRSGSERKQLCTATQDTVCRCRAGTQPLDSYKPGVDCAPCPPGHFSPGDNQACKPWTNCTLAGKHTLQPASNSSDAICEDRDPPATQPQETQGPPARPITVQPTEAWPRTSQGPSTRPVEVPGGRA
In the case of B1, the binding is reported as “binds”.
With B2 the binding was “binds”.
For B3, the binding was “binds”.
B4 was tested, and the binding was “binds”.

What follows are binders tested against OX40 (CRD2-3-4) (human), truncated human OX40 that lacks the CRD1 domain (human) (UniProt P43489) (assay: FACS on transiently transfected CHO-S cells).
With B5 the binding was “binds”.
B6 was tested, and the binding was “binds”.
For B7, the binding was “binds”.
With B8 the binding was “binds”.
